Test system: plasma metabolome of ALS patients

**Q.** Which “effect of the drug on endogenous cellular metabolites” value (plasma of ALS patients on Riluzole, after complete unblinding) does the source give for `Nc1nc2ccc(OC(F)(F)F)cc2s1` [Riluzole] here?
**A.** A series of endogenous cellular metabolites induced by the drug Riluzole were identified

**Q.** What about the “number of compounds increased in patients on Riluzole (HPLC analysis of the metabolome)” value (versus controls, FIG. 6B) of the same compound?
**A.** 17 compounds
